Values from PubChem BioAssay AID743454 (Peter MacCallum Cancer Centre, 2014).
Aim: 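Search for knock-downs that restore vorinostat killing in resistant colon cancer cells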 (primary screen). Cell system: human HCT116-VR colon cancer cells, selected for vorinostat resistance. Knock-down reagent: siRNA pool against human genes, 40 nM siRNA pool. Duration: vorinostat for 24 h, read-out about 72 h after transfection. Conditions: vorinostat at 2.5 µM final. Detection: 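Two measures, CellTiter-Fluor viability and luminescent caspase 3/7 activity, each as fold change against same-plate mock wells, mean of duplicates, then screen-wide robust z-score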. Direction: viability robust z-score: higher = more viable cells than screen typical; caspase robust z-score: higher = more caspase 3/7 activity than screen typical. Call rule: 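Hits are knock-downs in viability class RV1/RV2 or caspase class CA1/CA2, excluding ones that killed cells in the no-drug cell-count arm; hits then retested with single siRNAs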.
The deposit covers about 18,000 reagents; shown is a part drawn at random. Over the whole deposit, 450 (2.5%) got an active call. 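Single biological run; no consistent viability z cut-off exists, so the class columns, not z-scores, define the calls.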 No sequences are given here.

Which result is listed for RBM12?
viability hit class: no change; caspase hit class: no change; viability robust z-score: 0.32; caspase robust z-score: -0.86; call: inactive

For PLA2G12A, what does the deposit list?
viability hit class: no change; caspase hit class: no change; viability robust z-score: 0.3; caspase robust z-score: 0.37; call: inactive

With NAV3, what was measured?
viability hit class: no change; caspase hit class: no change; viability robust z-score: 0.55; caspase robust z-score: -0.55; call: inactive

For RBM42, what was measured?
viability hit class: RV2 (reduced viability); caspase hit class: no change; viability robust z-score: -3.66; caspase robust z-score: -0.48; call: active

For TRIM61, what was measured?
viability hit class: no change; caspase hit class: no change; viability robust z-score: 0.72; caspase robust z-score: -0.12; call: inactive

With SLC35F1, what does the deposit list?
viability hit class: no change; caspase hit class: no change; viability robust z-score: 0.78; caspase robust z-score: 0.78; call: inactive

With PDGFRA, what was measured?
viability hit class: no change; caspase hit class: no change; viability robust z-score: -0.04; caspase robust z-score: -0.76; call: inactive

Which result is listed for GPC5?
viability hit class: no change; caspase hit class: no change; viability robust z-score: 0.69; caspase robust z-score: -0.18; call: inactive

How did the screen score NSMCE3?
viability hit class: no change; caspase hit class: no change; viability robust z-score: -1.06; caspase robust z-score: 1.87; call: inactive

For TNR, how do the results read?
viability hit class: no change; caspase hit class: no change; viability robust z-score: 1.61; caspase robust z-score: -0.3; call: inactive

For FAM13B, how do the results read?
viability hit class: no change; caspase hit class: no change; viability robust z-score: 1.49; caspase robust z-score: 0.11; call: inactive

With SPEG, what was measured?
viability hit class: no change; caspase hit class: no change; viability robust z-score: -0.04; caspase robust z-score: -0.98; call: inactive

With TSPY2, how do the results read?
viability hit class: no change; caspase hit class: no change; viability robust z-score: 1.23; caspase robust z-score: 0.38; call: inactive

How did the screen score FMO2?
viability hit class: no change; caspase hit class: no change; viability robust z-score: 0.7; caspase robust z-score: 0.7; call: inactive

For OR5B12, how do the results read?
viability hit class: no change; caspase hit class: no change; viability robust z-score: -0.03; caspase robust z-score: 0.88; call: inactive

What did the screen give for FAAP100?
viability hit class: no change; caspase hit class: no change; viability robust z-score: -0.73; caspase robust z-score: 0.09; call: inactive

With CCR8, what was measured?
viability hit class: no change; caspase hit class: no change; viability robust z-score: 0.34; caspase robust z-score: -0.55; call: inactive

For CHI3L2, how do the results read?
viability hit class: no change; caspase hit class: no change; viability robust z-score: 1.21; caspase robust z-score: -0.62; call: inactive

For LMOD3, what does the deposit list?
viability hit class: no change; caspase hit class: no change; viability robust z-score: -0.56; caspase robust z-score: -0.79; call: inactive

For NRIP3, what was measured?
viability hit class: no change; caspase hit class: no change; viability robust z-score: 0.44; caspase robust z-score: -0.63; call: inactive

What is on record for KCTD1?
viability hit class: no change; caspase hit class: no change; viability robust z-score: 1.03; caspase robust z-score: -0.55; call: inactive

With TOMM20, what does the deposit list?
viability hit class: no change; caspase hit class: no change; viability robust z-score: -1.31; caspase robust z-score: 2.34; call: inactive

With SERPINI1, how do the results read?
viability hit class: no change; caspase hit class: no change; viability robust z-score: -1.67; caspase robust z-score: 1.38; call: inactive

For RAX, how do the results read?
viability hit class: no change; caspase hit class: no change; viability robust z-score: -0.28; caspase robust z-score: -0.03; call: inactive

What did the screen give for MTHFD2L?
viability hit class: no change; caspase hit class: no change; viability robust z-score: 0.03; caspase robust z-score: 0.34; call: inactive

With FRMPD2, how do the results read?
viability hit class: no change; caspase hit class: no change; viability robust z-score: 0.42; caspase robust z-score: -0.66; call: inactive

What is on record for CDCA2?
viability hit class: no change; caspase hit class: no change; viability robust z-score: 0.24; caspase robust z-score: 0.06; call: inactive
